From PMC11215065
Results are given in words; binding and its absence hold for the method and conditions named. Some results given as binding are weak or reduced against the parent protein; the word gives no strength.

Protein sequences, listed by entry. Tags and fused reporters are not part of them. Residues count along the entry.
UniProt P26718, residues 73-216: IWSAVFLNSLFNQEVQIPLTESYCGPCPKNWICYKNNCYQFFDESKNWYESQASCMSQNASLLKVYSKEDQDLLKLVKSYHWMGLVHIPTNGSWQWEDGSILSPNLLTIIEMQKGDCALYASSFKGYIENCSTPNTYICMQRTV

Key:
[1] = molecular target: T1, ULBP1 on transduced HEK293 cells (UniProt Q9BZM6); assay: flow cytometry on cells; ULBP1 (or ULBP3) HEK293 cells pretreated with sU20 at various concentrations for 5 minutes on ice, then stained with 5 nM NKG2D-Fc; only the binder purified
T1 sequence: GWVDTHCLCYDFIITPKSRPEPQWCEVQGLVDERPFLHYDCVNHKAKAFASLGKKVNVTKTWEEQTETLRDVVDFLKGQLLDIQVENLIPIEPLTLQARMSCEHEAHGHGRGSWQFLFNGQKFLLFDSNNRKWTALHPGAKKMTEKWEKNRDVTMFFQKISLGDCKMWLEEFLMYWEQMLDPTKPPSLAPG

[2] = molecular target: T2, ULBP3 on transduced HEK293 cells (UniProt Q9BZM4); assay: as above
T2 sequence: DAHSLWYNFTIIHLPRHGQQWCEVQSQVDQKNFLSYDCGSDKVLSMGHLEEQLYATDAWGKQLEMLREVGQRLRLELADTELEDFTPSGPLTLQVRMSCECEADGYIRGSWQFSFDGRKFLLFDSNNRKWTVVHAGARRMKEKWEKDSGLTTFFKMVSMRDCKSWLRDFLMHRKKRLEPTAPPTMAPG

[3] = molecular target: T1, ULBP1 on transduced HEK293 cells; assay: flow cytometry on cells; 5 nM NKG2D-Fc with AlexaFluor647 anti-human IgG F(ab')2 on ULBP1 or ULBP1/U20 HEK293S GnTI cells, on ice 30 minutes; only the binder purified
[4] = molecular target: T1, ULBP1 on transduced HEK293 cells; assay: flow cytometry on cells; as a5 but in HEK293T cells (fully intact, complex glycans); Supplementary Figure S3; only the binder purified

Measured: binding

NKG2D-Fc (from UniProt P26718 73-216) (Fc fusion)
binds: all assays above
